Measurements reported in PubChem BioAssay AID504804 (Drosophila RNAi Screening Center, 2011)
The deposit covers about 19,000 reagents; below is a random part of those with a known target gene and a result. Of all reagents, 47 (0.25%) were called active. 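Signals are raw, not normalised; exact z-scores behind calls not deposited; actives needed confirmation, so some wells reaching 2 SD are inactive.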 Entries without a mark were called inactive.

Aim: 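Knock-downs shielding fly cells from apoptosis caused by DNA damage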 (primary screen)
System: Drosophila Kc cells
Knock-down reagent: long dsRNA against Drosophila genes, 0.5 µg dsRNA per well
Time to read-out: 96 h (48 h knock-down, then 48 h drug)
Treatment: doxorubicin 5 µg/ml for 48 h, added 48 h after dsRNA
Measurement: 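Luminescent ATP counts per replicate, not normalised, reflecting viable cells after 48 h dsRNA knock-down followed by 48 h of 5 µg/ml doxorubicin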
Scale: raw ATP luminescence: higher = more viable cells, protection from doxorubicin
Active means: 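Active when both duplicate wells lie at least 2 SD above the plate mean and protection is confirmed by rescreening and independent dsRNAs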

CG7565 (GeneID 38893) [DRSC10881]: raw ATP luminescence, replicate 1 = 54457; raw ATP luminescence, replicate 2 = 51610
RhoGAP18B (GeneID 32898) [DRSC19763]: raw ATP luminescence, replicate 1 = 3.52e5; raw ATP luminescence, replicate 2 = 3.59e5
RhoGAP18B (GeneID 32898) [DRSC20047]: raw ATP luminescence, replicate 1 = 5.07e5; raw ATP luminescence, replicate 2 = 3.52e5
RhoGAP18B (GeneID 32898) [DRSC20048]: raw ATP luminescence, replicate 1 = 3.81e5; raw ATP luminescence, replicate 2 = 3.69e5
RhoGAP18B (GeneID 32898) [DRSC20049]: raw ATP luminescence, replicate 1 = 2.95e5; raw ATP luminescence, replicate 2 = 2.88e5
Est-6 (GeneID 39392) [DRSC11162]: raw ATP luminescence, replicate 1 = 79527; raw ATP luminescence, replicate 2 = 68027
Zip42C.1 (GeneID 35579) [DRSC05003]: raw ATP luminescence, replicate 1 = 55450; raw ATP luminescence, replicate 2 = 56677
Ih (GeneID 36589) [DRSC07445]: raw ATP luminescence, replicate 1 = 64273; raw ATP luminescence, replicate 2 = 68067
Gos28 (GeneID 248102) [DRSC16292]: raw ATP luminescence, replicate 1 = 58230; raw ATP luminescence, replicate 2 = 84480
CG15044 (GeneID 32834) [DRSC19620]: raw ATP luminescence, replicate 1 = 2.73e5; raw ATP luminescence, replicate 2 = 2.50e5
CG13994 (GeneID 33853) [DRSC02326]: raw ATP luminescence, replicate 1 = 26093; raw ATP luminescence, replicate 2 = 40443
PpD6 (GeneID 49780) [DRSC00774]: raw ATP luminescence, replicate 1 = 23303; raw ATP luminescence, replicate 2 = 26480
RpS2 (GeneID 34309) [DRSC03614]: raw ATP luminescence, replicate 1 = 32693; raw ATP luminescence, replicate 2 = 32220
CG3448 (GeneID 39094) [DRSC10368]: raw ATP luminescence, replicate 1 = 92997; raw ATP luminescence, replicate 2 = 96130

Next part; the last 4 above are carried over.
CG13994 (GeneID 33853) [DRSC02326]: raw ATP luminescence, replicate 1 = 26093; raw ATP luminescence, replicate 2 = 40443
PpD6 (GeneID 49780) [DRSC00774]: raw ATP luminescence, replicate 1 = 23303; raw ATP luminescence, replicate 2 = 26480
RpS2 (GeneID 34309) [DRSC03614]: raw ATP luminescence, replicate 1 = 32693; raw ATP luminescence, replicate 2 = 32220
CG3448 (GeneID 39094) [DRSC10368]: raw ATP luminescence, replicate 1 = 92997; raw ATP luminescence, replicate 2 = 96130
bwa (GeneID 250736) [DRSC01749]: raw ATP luminescence, replicate 1 = 56847; raw ATP luminescence, replicate 2 = 52880
bwa (GeneID 250736) [DRSC02310]: raw ATP luminescence, replicate 1 = 49300; raw ATP luminescence, replicate 2 = 48773
CG13054 (GeneID 39780) [DRSC09935]: raw ATP luminescence, replicate 1 = 87437; raw ATP luminescence, replicate 2 = 53490
CG5116 (GeneID 43081) [DRSC15720]: raw ATP luminescence, replicate 1 = 2.19e5; raw ATP luminescence, replicate 2 = 2.22e5
pgc (GeneID 5740599) [DRSC04099]: raw ATP luminescence, replicate 1 = 23583; raw ATP luminescence, replicate 2 = 26953
CG14759 (GeneID 35803) [DRSC06494]: raw ATP luminescence, replicate 1 = 33613; raw ATP luminescence, replicate 2 = 77670
CG12402 (GeneID 41714) [DRSC14508]: raw ATP luminescence, replicate 1 = 80260; raw ATP luminescence, replicate 2 = 90170
ush (GeneID 33225) [DRSC00843]: raw ATP luminescence, replicate 1 = 1.04e5; raw ATP luminescence, replicate 2 = 87177
CG34241 (GeneID 5740575) [DRSC09157]: raw ATP luminescence, replicate 1 = 1.94e5; raw ATP luminescence, replicate 2 = 1.86e5
wntD (GeneID 41633) [DRSC16423]: raw ATP luminescence, replicate 1 = 88380; raw ATP luminescence, replicate 2 = 57360
CG15347 (GeneID 31779) [DRSC18031]: raw ATP luminescence, replicate 1 = 45710; raw ATP luminescence, replicate 2 = 51950
alpha-Est5 (GeneID 40905) [DRSC12617]: raw ATP luminescence, replicate 1 = 49780; raw ATP luminescence, replicate 2 = 30583
ssp7 (GeneID 318146) [DRSC18878]: raw ATP luminescence, replicate 1 = 1.86e5; raw ATP luminescence, replicate 2 = 2.71e5
Vps52 (GeneID 33774) [DRSC03050]: raw ATP luminescence, replicate 1 = 24817; raw ATP luminescence, replicate 2 = 30840
